# These are yes or no findings as the source states them, for the method shown. Some results given as binding are weak or reduced against the parent protein; the word gives no strength.
# Sequences of proteins named here, by UniProt entry; tags and fusion partners are left off.
# UniProt P40763: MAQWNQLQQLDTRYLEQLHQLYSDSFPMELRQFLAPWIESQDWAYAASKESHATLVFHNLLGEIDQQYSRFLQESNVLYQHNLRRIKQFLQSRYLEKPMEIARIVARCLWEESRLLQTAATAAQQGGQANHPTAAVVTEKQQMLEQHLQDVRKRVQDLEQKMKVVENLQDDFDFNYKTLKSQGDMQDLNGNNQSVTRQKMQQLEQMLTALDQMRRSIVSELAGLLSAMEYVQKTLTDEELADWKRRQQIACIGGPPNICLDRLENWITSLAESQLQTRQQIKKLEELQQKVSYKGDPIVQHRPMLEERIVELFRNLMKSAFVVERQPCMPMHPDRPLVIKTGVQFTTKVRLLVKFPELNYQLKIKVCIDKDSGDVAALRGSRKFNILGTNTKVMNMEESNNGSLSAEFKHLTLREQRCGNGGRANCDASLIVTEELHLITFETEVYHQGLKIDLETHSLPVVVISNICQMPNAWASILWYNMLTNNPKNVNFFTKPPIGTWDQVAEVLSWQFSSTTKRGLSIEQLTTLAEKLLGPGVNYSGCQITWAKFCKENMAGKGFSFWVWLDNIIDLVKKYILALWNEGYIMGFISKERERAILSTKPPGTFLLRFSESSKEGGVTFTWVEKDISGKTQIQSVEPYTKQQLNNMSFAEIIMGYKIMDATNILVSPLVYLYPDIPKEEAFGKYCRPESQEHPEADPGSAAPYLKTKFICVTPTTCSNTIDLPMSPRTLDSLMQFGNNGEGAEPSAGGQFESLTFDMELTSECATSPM
# B1: ETI01_A4 nanobody (VHH)
# VHH: HVQLVESGGGSVQAGGSLRLSCAASGFNSGDSCIGWFRQVPGKEREGVSVISSGGEIRYYADSVKGRFTISQDNTKNTLYLQMNSLKPEDTAMYYCATSVFLCYPRTWFNRYMYNSWGQGTQVTVSS
# Target: STAT3 (UniProt P40763)
# Experiment: yeast display library selection
binder,measurement,value
B1,binding,binds

# Reference: patent EP4810514A1
